PubChem BioAssay AID2673 (National Center for Advancing Translational Sciences (NCATS), 2010)
This list was built around the results that the source calls inconclusive (neither active nor inactive); the mix of calls is not that of the screen. Potencies beside an inconclusive call are fits to weak or partial responses and may not hold up. Activity calls are given as the source filed them. The call rests on the fitted dose curve; in most records, active means well fitted activation curve with a large enough effect; inconclusive means small, poorly fitted or top-dose-only effect; inactive means no such curve, though single readings can be large or run the other way.

assay: qHTS Multiplex Assay to Identify Dual Action Probes in a Cell Model of Huntington: Cytoprotection confirmation (ATP); details: PC12 HttQ103 induced, ATP luminescence 40 h; series mostly up to 46.1 µM; cytoprotection, positive = protection: at the top concentration
Source text: NIH Chemical Genomics Center [NCGC]
NIH Molecular Libraries Probe Production centers Network [MLPCN]
Assay Submitter (PI): Wei Zheng
Huntington's disease is a neurodegenerative disorder caused by a trinucleotide repeat expansion in Exon 1 of the Huntingtin gene. The CAG trinucleotide encodes glutamine and polyglutamine expansions cause cell death in selective areas of the brain. Huntington polyglutamine repeats have the tendency to form aggregates which are observable in later stages of the disease. The exact nature of the aggregates, whether toxic, protective, or insignificant, is unclear.
A stable PC12 cell line containing a gene fusion of Exon 1 of the Huntingtin gene linked to GFP under the control of the inducible ecdysone promoter were used as the cell-based model of Huntington Disease for high throughput screening. Exon 1 of the Huntingtin gene contained an expansion of 103 polyglutamines (Q103) which, when expressed, caused cell death and distinct, bright GFP aggregates. The amount of cell death and the size and intensity of GFP aggregates increased over time and induction level. The cell death were quantified with a measurement of ATP content in the cells. A maximal 40-50% of cell death was observed when the Huntington gene was induced in this cell line.
We optimized this assay in a homogeneous 1536 well format. A quantitative high throughput screen (qHTS) was conducted on the PC12 cells which were induced to express the toxic fusion construct. Small molecules which prevented cell death were identified by using a luminescent ATP quantification method (Perkin Elmer's ATPlite).
PC12 cells stably containing a construct with an ecdysone inducible promoter expressing GFP fused to the exon 1 of HTTQ103 (Huntington protein which containing a 103 ployglutamine expansion) were used.
NCGC Assay Protocol Summary:
Sequence, Parameter, Description
1, Reagent, 5 uL 1500 cells/well 1536 TC treated White clear bottom plate
2, Compound, 23 nL Tebufenozide inducer (100 nM final) to all columns
3, Compound, 23 nL 40 uM to 0.5 nM Libraries
5, Reagent, 5 ul ATPLite cell death assay reagent
6, Detector, 4 sec integration with a Viewlux Luminescent
Media consisted of phenol red free DMEM + 5% equine serum (Hyclone # SH30072.03 ), 5% supplemented Bovine Calf Serum (Hyclone # SH30074.03 ), 1x pen/strep, no G418

SMILES | cytoprotection, positive = protection | Potency
CC(=O)c1ccc(-c2csc3ncnc(Sc4nnnn4C)c23)cc1 | inactive: -23.7% | 
Cn1nnnc1Sc1ncnc2scc(-c3ccc(-c4ccccc4)cc3)c12 |  | inconclusive: 8.91 µM [activator, full curve, poor fit]
Cn1nnnc1Sc1ncnc2scc(-c3ccc(C(F)(F)F)cc3)c12 |  | inconclusive: 15.8 µM [activator, single point]
NC(=O)c1sc2nccc(Nc3ccccc3)c2c1N |  | inconclusive: 0.355 µM [activator, full curve, poor fit]
CCOC(=O)c1sc2nc(N3CCOCC3)c3c(c2c1N)CCN(C)C3 |  | inconclusive: 4.47e-05 µM [activator, full curve, poor fit]
O=C(O)/C=C/C(O)c1ccc(Cl)cc1 (centres undefined) | inactive: -13.1% | 
CN1C(=O)NC(NC(=O)c2cccs2)(C(F)(F)F)C1=O (centres undefined) | inactive: 8.42% | 
Cn1nnnc1Sc1ncnc2scc(-c3cccc(N)c3)c12 | inactive: 3.36% | 
CCNc1nc(N)c(C(=O)c2ccc(Cl)s2)s1 |  | inconclusive: 7.94 µM [activator, partial curve, poor fit]
COc1ccc2nc(Sc3c([N+](=O)[O-])nc(C)n3Cc3ccccc3)[nH]c2c1 |  | inconclusive: 14.1 µM [activator, single point]
O=C(Nc1cc([N+](=O)[O-])ccc1Cl)c1ccc2c(c1)OCO2 |  | inconclusive: 2.51e-05 µM [activator, full curve, poor fit]
Cn1nnnc1Sc1ncnc2scc(-c3ccc([N+](=O)[O-])cc3)c12 |  | inconclusive: 14.1 µM [activator, single point]
NCCCCCc1cnc[nH]1 |  | inconclusive: 2.51e-05 µM [activator, full curve, poor fit]
COc1cccc(-c2csc3ncnc(Sc4nnnn4C)c23)c1 |  | inconclusive: 10 µM [activator, partial curve]
Cn1nnnc1Sc1ncnc2scc(-c3ccccc3[N+](=O)[O-])c12 |  | inconclusive: 35.5 µM [activator, single point]
C=C(C)C(=O)OCCCCCCOc1ccc(C(=O)O)cc1 | inactive: 1.06% | 
C[C@@H]1CNCCN1S(=O)(=O)c1cccc2cnccc12 | inactive: 0.336% | 

SMILES | cytoprotection, positive = protection | Potency
Cn1nnnc1Sc1ncnc2scc(I)c12 |  | inconclusive: 14.1 µM [activator, partial curve, poor fit]
Cn1nnnc1Sc1ncnc2scc(-c3cccc4c3sc3ccccc34)c12 |  | inconclusive: 20 µM [activator, full curve, poor fit]
Cn1nnnc1Sc1ncnc2scc(-c3ccccc3S(C)(=O)=O)c12 |  | inconclusive: 20 µM [activator, partial curve, poor fit]
Cc1ccccc1-c1csc2ncnc(Sc3nnnn3C)c12 | inactive: 13% | 
COc1ccccc1-c1csc2ncnc(Sc3nnnn3C)c12 | inactive: 23.1% | 
O=c1oc2cc(O)ccc2s1 | inactive: -5.12% | 
O=C1Cc2c([nH]c3ccc(Br)cc23)-c2ccccc2N1 |  | inconclusive: 0.001 µM [activator, full curve, poor fit]
CCS(=O)(=O)c1nnnn1-c1ccccc1S(C)(=O)=O |  | inconclusive: 31.6 µM [activator, partial curve, poor fit]
Cn1nnnc1Sc1ncnc2scc(-c3ccc(Br)cc3)c12 |  | inconclusive: 15.8 µM [activator, single point]
Cn1nnnc1Sc1ncnc2scc(-c3ccc(F)cc3)c12 |  | active: 25.1 µM
Cn1nnnc1Sc1ncnc2scc(-c3cccc(F)c3)c12 |  | active: 14.1 µM
COc1ccc(NC(=O)c2sc(SC)nc2N)cc1 | inactive: -9.58% | 
Cn1cc(C2=C(c3ccc(Cl)cc3Cl)C(=O)NC2=O)c2ccccc21 |  | inconclusive: 3.55 µM [activator, full curve]
O=C(O)Cc1ccc(-c2ccccc2)cc1 |  | inconclusive: 5.01e-05 µM [activator, full curve, poor fit]
Fc1cccc(Cl)c1Cn1nnc2c(-n3ccnc3)ncnc21 | inactive: 7.87% | 
Cn1nnnc1Sc1ncnc2scc(-c3ccc[nH]3)c12 |  | active: 12.6 µM
Cn1nnnc1Sc1ncnc2scc(Br)c12 | inactive: -109% | 

Shown tab-delimited: two of the compounds above.
SMILES	cytoprotection, positive = protection	Potency
Cn1nnnc1Sc1ncnc2scc(-c3cccc(F)c3)c12		active: 14.1 µM
COc1ccc(NC(=O)c2sc(SC)nc2N)cc1	inactive: -9.58%	
